# Source: PubChem BioAssay AID2685 (National Center for Advancing Translational Sciences (NCATS), 2010)
# Values joined by “and” are separate entries in the source; they are usually repeats but may differ in a detail not shown here. Identical values can stand only once. Some of the results follow. These are further read-outs of the screen, such as a control signal, another cell line or another target. No call is given for them. Most of these compounds were active or inconclusive in the main read-out, so they are no random draw. Potencies come from curve fits of mixed quality, noted in brackets.
# Assay: qHTS Assay for Lipid Storage Modulators in Drosophila S3 Cells;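 on cell number change: cells counted by Cell Tracker Red CMTPX staining in the red channel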
# Settings: BODIPY lipid droplet fluorescence, 18-24 h; for cell number change: measured here: cell count max response, cells fed with added oleic acid
# Procedure, shortened: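 Drosophila S3 cells got compounds at several concentrations plus oleic acid (400 uM solution). Laser-scanning cytometry with 488 nm excitation read lipid droplets at 500-530 nm and cells at 575-640 nm. Percent activity was relative to 20 uM Triacsin C.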
# [1] = measured here: lipid fluorescence (Fed channel) AC50, cells fed with added oleic acid
# [2] = measured here: cell number channel AC50, cells fed with added oleic acid
Structure (SMILES),cell number change,AC50 [1],AC50 [2]
CN(C)c1ccc(CN(C(=O)COc2ccc(Br)cc2)C2CCS(=O)(=O)C2)cc1 (centres undefined),-8.98%,"4.61 µM [rising, full curve]",–
Cc1ccc2[nH]cc(CCNC(=O)C3CCCCC3)c2c1,22.8%,–,"7.31 µM [rising, partial curve, poor fit]"
O=C1C=C(c2ccc(Cl)c(C(F)(F)F)c2)C[C@@H](c2ccc3c(c2)OCO3)C1,5.22%,"6.51 µM [falling, single point]","2.06 µM [falling, single point]"
COc1ccc(CN2CCN(C3CCC3)CC2CCO)cc1C (centres undefined),7.97%,–,–
COc1ccccc1OCc1nnc(SCC(=O)N2CCCC2)o1,-17.1%,"14.1 µM [rising, single point]",–
Cc1ccc(S(=O)(=O)NCCC(=O)OCC(=O)Nc2cccc(S(=O)(=O)NC3=NCCCCC3)c2)cc1,-15.6%,–,"0.0517 µM [falling, full curve, poor fit]"
COc1ccc(COc2ccsc2C(=O)Nc2ccc(Cl)c(Cl)c2)cc1,16.2%,"8.2 µM [rising, partial curve, poor fit]",–
Cc1ccnc(SCCn2c(N3CCCCC3)nc3c2c(=O)n(C)c(=O)n3C)n1,–,"0.184 µM [falling, full curve, poor fit]","5.8 µM [rising, single point]"
CCN(CC)C(=O)COC(=O)c1ccc(O)cc1,–,"4.11 µM [falling, partial curve, poor fit]",–
COc1ccc(NC(=O)CN2C(=O)COc3ccc(S(=O)(=O)N4CCOCC4)cc32)cc1,-8.36%,"4.11 µM [rising, partial curve, poor fit]",–
O=C(CN1CCOCCOCCOCC1)Nc1ccccc1,2.32%,"1.16 µM [falling, full curve]",–
Cc1noc(C)c1-c1ccc2ncnc(NCC3CCCCN3C)c2c1 (centres undefined),-10.5%,–,–
O=C(CCNS(=O)(=O)c1ccccc1)N1CCCC1,28.3%,"32.6 µM [rising, partial curve, poor fit]",–
O=C(COC(=O)Cc1ccc(F)cc1)NC1CCCCC1,1.75%,"0.00461 µM [falling, full curve, poor fit]",–
COc1ccc(-c2cc(=O)oc3cc(OC(=O)C4CCCCC4)ccc23)cc1,10.8%,"0.082 µM [falling, partial curve, poor fit]",–
COc1ccc(F)cc1S(=O)(=O)n1cc(C)nc1-c1ccccc1,2.23%,"0.00411 µM [falling, full curve, poor fit]",–
Cc1ccc(-c2nnc(SCC(=O)N/N=C/c3ccc(C(=O)O)cc3)n2C2CCCCC2)cc1,8.06%,"0.00731 µM [rising, full curve, poor fit]",–
Cc1ccc(S(=O)(=O)NC(C)(C)CSc2ncccn2)cc1,-23.5%,"29.1 µM [falling, partial curve, poor fit]",–
Cc1nc2ccc(NS(=O)(=O)c3ccccc3Cl)cc2s1,-20.6%,"4.61 µM [rising, single point]",–
Cc1nnc(SCC(=O)n2c3c(c4ccccc42)CCCC3)s1,34.2%,"0.291 µM [rising, partial curve]","1.16 µM [rising, full curve]"

Structure (SMILES),cell number change,AC50 [1],AC50 [2]
C/C=C/c1ccc(OCCCCN(C)Cc2ccccc2)c(OC)c1,19.6%,–,–
CSc1ccc(CN2CCN(C(=O)CC(C)C)CC2)cc1,13.5%,"0.116 µM [falling, full curve]","1.84 µM [rising, partial curve, poor fit]"
CCCNC(=S)N1CCCC(c2nc3ccccc3[nH]2)C1 (centres undefined),56.8%,"6.51 µM [falling, single point]","10.3 µM [rising, partial curve]"
CC(C)c1ccc(/C=N/NC(=O)CCNC(=O)c2ccccc2)cc1,2.5%,"0.461 µM [falling, full curve]",–
COc1ccc(C(=O)n2nc(C)cc2C)cc1OC,-16.6%,–,–
CCOC(=O)Cn1c(=O)oc2cc(S(=O)(=O)NC3CCCCC3)ccc21,-7.78%,–,–
O=C(Nc1ccccc1C(=O)Nc1cccnc1)c1ccccc1,78.2%,"0.82 µM [rising, partial curve]","10.3 µM [rising, partial curve]"
CCCn1c(N)cc(=O)n(C)c1=O,30.5%,–,–
CC(=O)N1CCN(CCS(=O)(=O)c2ccc(Br)cc2)CC1,7.71%,"0.731 µM [falling, partial curve, poor fit]",–
O=C(O)c1cc(S(=O)(=O)N2CCCCCC2)c(Cl)cc1Cl,-0.0641%,"0.13 µM [falling, full curve, poor fit]",–
CCC(C)NC(=O)CCn1c(-c2ccc(F)cc2)cc(C(C)=O)c1C (centres undefined),36.9%,–,–
N#Cc1c(C(F)(F)F)cc(=O)n2c1[nH]c1ccccc12,-19.5%,"0.58 µM [rising, single point]",–
Cc1csc2nc(COC(=O)CNC(=O)c3ccc(Cl)cc3)cc(=O)n12,3.51%,"0.82 µM [falling, full curve]","0.00461 µM [falling, full curve, poor fit]"
CC1(C)NC(=O)N(CC(=O)NNC(=O)c2ccccc2F)C1=O,14.9%,"0.146 µM [falling, full curve, poor fit]","0.146 µM [falling, full curve, poor fit]"
Cc1c(CN2CCC(n3nccc3NC(=O)C3CCOC3)CC2)[nH]c2ccccc12 (centres undefined),33.8%,"0.731 µM [rising, single point]","0.0731 µM [rising, full curve, poor fit]"
CC(SCc1ccccc1)C(=O)NC1CCCC1 (centres undefined),-16.2%,–,–
COc1cc2c(cc1OC)-c1nnc(-c3cccs3)n1C1(CCCC1)C2,168%,–,"29.1 µM [rising, single point]"
Cc1ccc(O)c(CNc2nc3ccccc3[nH]2)c1,-13.3%,"1.46 µM [falling, partial curve]",–
O=C(c1ccc(Oc2ccccc2)cc1)C1CCCN(C(=O)c2cnccn2)C1 (centres undefined),-0.479%,"20.6 µM [falling, single point]",–
CCN(CCNC(=O)C1CCN(Cc2nc(-c3ccc(Cl)cc3)oc2C)CC1)c1ccccc1,-58.5%,"29.1 µM [falling, single point]","25.9 µM [falling, single point]"

Structure (SMILES),cell number change,AC50 [1],AC50 [2]
CC(C)CCN1CCN(Cc2ccc(C(F)(F)F)cc2)CC1CCO (centres undefined),6.4%,"23.1 µM [rising, single point]",–
COc1ccc(NC(=O)COc2cc(C)cc(C)c2)cc1S(=O)(=O)N1CCCCC1,20.8%,–,–
Cc1nn(C)c(Oc2ccc(Cl)cc2)c1C=O,156%,"25.9 µM [rising, partial curve]","0.00411 µM [rising, full curve, poor fit]"
COc1ccc(C(=O)OCC(=O)N2CCCC2=O)c(OC)c1,–,–,"0.58 µM [falling, single point]"
CN(C)C=NC(=O)c1cc(C(=O)c2ccc(C(C)(C)C)cc2)c[nH]1,2.76%,"0.58 µM [falling, single point]",–
Cc1ccc2[nH]c3c(c2c1)CCCC3NC(=O)CCl (centres undefined),-25.5%,"29.1 µM [falling, single point]",–
CC(=O)c1ccc(N2CCN(C(=O)c3ccc(Cl)c(S(=O)(=O)NC4CC4)c3)CC2)c(F)c1,-32%,"4.11 µM [falling, single point]","16.4 µM [falling, partial curve, poor fit]"
COc1ccc(C)cc1NC(=O)CN1c2cccc3cccc(c23)S1(=O)=O,-43.4%,–,"11.6 µM [falling, partial curve, poor fit]"
CCOCCCNC(=O)Cn1cnc2c(cnn2-c2ccc(F)cc2)c1=O,11.1%,"10.3 µM [rising, partial curve]",–
Cc1cccc(NC(=O)CC23CC4CC(C2)CC(n2nnc(C)n2)(C4)C3)c1,-12.7%,"0.291 µM [falling, full curve, poor fit]",–
Fc1ccc(Br)cc1C1C=C(c2ccc(Br)s2)Nc2ncnn21 (centres undefined),76%,"0.13 µM [rising, full curve, poor fit]","29.1 µM [rising, single point]"
Cn1c(CNC(=O)CCNC(=O)c2ccc(Br)cc2)cc(=O)n(C)c1=O,-3.54%,"0.58 µM [falling, single point]",–
Cc1ccccc1Nc1ncnc2c1cnn2Cc1ccccc1,-20.2%,"29.1 µM [falling, single point]",–
CC1=NN(c2cccc(Cl)c2)C(=O)C12CC(C)=C(C)CS2 (centres undefined),110%,"1.64 µM [rising, partial curve]","18.4 µM [rising, partial curve]"
c1ccc(-c2nc[nH]c2-c2ccccc2)cc1,3.09% and 23.6%,"206 nM [rising, full curve] and 18.4 µM [rising, single point]",–
COc1ccc(C)cc1-n1nnnc1SCc1nc2ccccc2s1,-28.4%,"9.2 µM [falling, partial curve]",–
COc1ccc(/C=N/NC(=O)c2cccc([N+](=O)[O-])c2)cc1OC(=O)c1ccccc1,3.72%,"2.59 µM [rising, partial curve]","0.291 µM [rising, full curve, poor fit]"
O=C(NCCc1c[nH]c2ccccc12)c1ccc(S(=O)(=O)NCc2ccco2)cc1,-74%,"29.1 µM [falling, single point]",–
